Measured values as given in paper PMC7819943, “Rice protein-binding microarrays: a tool to detect cis-acting elements near promoter regions in rice”.
Some of the results follow.

Amino acid sequences for entries named in this document (tags omitted).
UniProt Q0JBA9, entry or part of it: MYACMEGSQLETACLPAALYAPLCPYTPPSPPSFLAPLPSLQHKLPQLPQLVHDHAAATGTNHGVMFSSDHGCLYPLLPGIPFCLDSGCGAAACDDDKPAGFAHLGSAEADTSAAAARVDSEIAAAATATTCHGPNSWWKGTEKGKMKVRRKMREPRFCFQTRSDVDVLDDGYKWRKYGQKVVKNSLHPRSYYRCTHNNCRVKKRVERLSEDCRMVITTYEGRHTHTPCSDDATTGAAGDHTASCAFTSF

Each sequence was assayed against OsWRKY34 (Oryza sativa, UniProt Q0JBA9 1-250) (assay: protein-binding microarray (RPBM); PBS, 2% BSA, 51.3 ng/ul salmon testes DNA, 50 uM zinc acetate, 200 nM TF, 25 C, 1 h; high values mean tight binding). Conditions: protein: recombinant; tags: N-terminal polyhistidine and DsRed monomer fusion (pET32a); label: CyDye5-dUTP incorporated in the synthesized complementary strand; 3' TTTTT single-stranded linker to array surface; dsDNA, one strand shown.
Procedure, shortened: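 For the binding signal, per-feature fluorescence intensity was read in arbitrary units on an Axon 4000B scanner. Before scanning, a 2% BSA-blocked custom Agilent array made double-stranded with Cy5-dUTP was washed after 1 h at 25 °C with 200 nM protein and 50 µM zinc acetate. The proteins were Ni–NTA-purified transcription factors with N-terminal polyhistidine and DsRed fusions, expressed in E. coli BL21-CodonPlus.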

| Sequence | binding signal |
| --- | --- |
| CTCTCGCTCTTTTATTTTTTTTCCTTGTTTCCTTTCGTGTCGGAGTCACCTAGTGCAG | 12100 fluorescence intensity (a.u.) |
| AGACTGATATGATAGTATTATTTTACCAAGCTAGTCCGGCCGGAGTCACCTAGTGCAG | 8410 fluorescence intensity (a.u.) |
| CACATACTCCATCTGGTTCTATATTAATTGATGTTTTGGACGGAGTCACCTAGTGCAG | 9810 fluorescence intensity (a.u.) |
| TATTGCATGTCCATATTCACTGTCCTAAATGGTGTTACTCCGGAGTCACCTAGTGCAG | 8500 fluorescence intensity (a.u.) |
| TATTTTTTGCTATTATCTTTCGTGTAAGCTATTTCTCTATCGGAGTCACCTAGTGCAG | 9170 fluorescence intensity (a.u.) |
| TACACGAGTCACGTCTCGCTCGGCTCACGCACGCACGAATCGGAGTCACCTAGTGCAG | 9660 fluorescence intensity (a.u.) |
| AATACTTTCTTCCTTTTGCTCCTATACTGATATACTACTACGGAGTCACCTAGTGCAG | 10900 fluorescence intensity (a.u.) |
| CTCCGGCTCCGATTCACCGACCGCATCAGCTACGTCTACCCGGAGTCACCTAGTGCAG | 8860 fluorescence intensity (a.u.) |
| TTCTGGTTGGGGAAGGGTTAAAAGTCCACATATCTCACTACGGAGTCACCTAGTGCAG | 12000 fluorescence intensity (a.u.) |
| ACCCACACACCCACACCCACACGTCAAAGACCCACGGTTTCGGAGTCACCTAGTGCAG | 8480 fluorescence intensity (a.u.) |
| ACTCCTCCCATCCCTTGTACTACTGCCATTTTTTCAGTTTCGGAGTCACCTAGTGCAG | 8750 fluorescence intensity (a.u.) |
| TCTATCGATTTCTCCCTTCCTTCTCTTTCTTCTTTCTTTCCGGAGTCACCTAGTGCAG | 8500 fluorescence intensity (a.u.) |
| ACTCACAACCAAAACCATTGCCATTATTCTCACCATGCAACGGAGTCACCTAGTGCAG | 8660 fluorescence intensity (a.u.) |
| GGAGGCACAGATGGCGTATACACATAAAGTATACCATACCCGGAGTCACCTAGTGCAG | 8192 fluorescence intensity (a.u.) |
| TTTTCTTCCTTCTTTCTCCTGCTTCACGGGCCCGACCTATCGGAGTCACCTAGTGCAG | 10100 fluorescence intensity (a.u.) |
| TGGCTAGGAGCCGGTTGGCATTGGGGTTAACCTGGTCTGACGGAGTCACCTAGTGCAG | 8210 fluorescence intensity (a.u.) |
| GGCTAGAACTACTCCATCGGCTTGTCAGCCGATCGGCTGTCGGAGTCACCTAGTGCAG | 9120 fluorescence intensity (a.u.) |
| CTCGAACCCAAACCGACTATCGTTCCTTCCGGCTGACTTACGGAGTCACCTAGTGCAG | 9160 fluorescence intensity (a.u.) |
| CGGGGCTTGGGGTTTTGCGGGTTTGAGGAAGAAGAAGAGGCGGAGTCACCTAGTGCAG | 12400 fluorescence intensity (a.u.) |
| TTGACTTTTGCTTGCACTGTTTGATTACTCGTCTTATTAACGGAGTCACCTAGTGCAG | 8670 fluorescence intensity (a.u.) |
| TCTTTCTCACTCTAATCGCTAGTCTTCGCGGTCCATATCTCGGAGTCACCTAGTGCAG | 10200 fluorescence intensity (a.u.) |

Quoted from the listing.
TTGACTTTTGCTTGCACTGTTTGATTACTCGTCTTATTAACGGAGTCACCTAGTGCAG – binding signal: 8670 fluorescence intensity (a.u.)
TACACGAGTCACGTCTCGCTCGGCTCACGCACGCACGAATCGGAGTCACCTAGTGCAG – binding signal: 9660 fluorescence intensity (a.u.)

(cont.)

| Sequence | binding signal |
| --- | --- |
| TTCCGGTGGTGGCAAGGGCGGGCGGTGGCAGCGGAGGAGTCGGAGTCACCTAGTGCAG | 11400 fluorescence intensity (a.u.) |
| CTTCCTCCGTTTCACAATGTAAGTCGTTCTAGCATTTTTCCGGAGTCACCTAGTGCAG | 8110 fluorescence intensity (a.u.) |
| AGACTTGAATTTCCTATAGCAATCGATTATTTCTTCTCACCGGAGTCACCTAGTGCAG | 8140 fluorescence intensity (a.u.) |
| TATGGGTGGTTTCGCTAACGTGGCAGGGGAGGGCGGCGACCGGAGTCACCTAGTGCAG | 13200 fluorescence intensity (a.u.) |
| TTTAACACGCCAGTCGCCGCGCAATATATTACCATTAATTCGGAGTCACCTAGTGCAG | 8050 fluorescence intensity (a.u.) |
| CATACTAGGTCCCTTATTTTTACATCGGATTACAAAGTCACGGAGTCACCTAGTGCAG | 10500 fluorescence intensity (a.u.) |
| GATTAGTGGGCCCATTTATAGGTAATGACATGTATGTTTTCGGAGTCACCTAGTGCAG | 8320 fluorescence intensity (a.u.) |
| TACTTACTGCTTCAACGGATGGCAGTATATTGCATTCTTTCGGAGTCACCTAGTGCAG | 8590 fluorescence intensity (a.u.) |
| GGTTGATACTGTTGTGGAGTAGTGTAGTGGTAGCGAGCTCCGGAGTCACCTAGTGCAG | 8030 fluorescence intensity (a.u.) |
| TCATGCGCATGTTTTCCGCACTATTAACCGTTGTAATTTTCGGAGTCACCTAGTGCAG | 8250 fluorescence intensity (a.u.) |
| TCTTGGTTCTGAATTTCAGTTCTCTCTTTTCCTCTGCATCCGGAGTCACCTAGTGCAG | 8260 fluorescence intensity (a.u.) |
| TATTCAGATTGTGGTTCATGTGGCAAGCACGTACGTACACCGGAGTCACCTAGTGCAG | 9650 fluorescence intensity (a.u.) |
| CTGCTAGAAATTTCGTTTCTTCAGATAGCTCATCATTTTTCGGAGTCACCTAGTGCAG | 8260 fluorescence intensity (a.u.) |
| GTACTCTCTTTGTTTCATATTATAAGTCATTTGACTTTTTCGGAGTCACCTAGTGCAG | 11600 fluorescence intensity (a.u.) |
| TCGTCTCCACTCCTCCGTTGCCATCCTCGTCGTCGTCCTCCGGAGTCACCTAGTGCAG | 9270 fluorescence intensity (a.u.) |
| ATTAAGCATGTGTTGGTGGGTTGAATGTTGATGCCGCTGGCGGAGTCACCTAGTGCAG | 8380 fluorescence intensity (a.u.) |
| GCTTTTTATCTCTCTCTCTCTCCTGGGACGCGTGCCCCTCCGGAGTCACCTAGTGCAG | 9360 fluorescence intensity (a.u.) |
| TCACCATATTGTCATCCTTTCTTTTTCATAAGTAGACAACCGGAGTCACCTAGTGCAG | 8250 fluorescence intensity (a.u.) |
| CCACCCAAACACCACGACCTCCTTCCACCGTCGCCTTCTTCGGAGTCACCTAGTGCAG | 9420 fluorescence intensity (a.u.) |
| GTAGAAGTCTGTATCGTCATGCGTCAACATATCATGATATCGGAGTCACCTAGTGCAG | 8040 fluorescence intensity (a.u.) |
| GCCCAAAAAACCCACCACTCCATCGCGCGAACCGCCCCAACGGAGTCACCTAGTGCAG | 9240 fluorescence intensity (a.u.) |
